Test results published in patent publication US8389766B2, “Insecticidal compounds” (Syngenta Crop Protection LLC, priority 2006, dated 2013).
Some results were stated once for a whole list of compounds, not compound by compound.

Experiments:
Format in all cases: in vivo
Diabrotica balteata = Diabrotica balteata (corn root worm) larvae test on artificial diet; details: 200 ppm (concentration in well 18 ppm), L2 larvae, larval mortality, growth regulation after 5 days
Spodoptera littoralis = Spodoptera littoralis (Egyptian cotton leafworm) cotton leaf disc spray test; details: 200 ppm sprayed on cotton leaf discs, 5 L1 larvae; mortality, feeding behaviour, growth regulation 3 DAT
Heliothis virescens = Heliothis virescens (tobacco budworm) egg test on artificial diet; details: 200 ppm (concentration in well 18 ppm), eggs 0-24 h old on artificial diet; egg mortality, larval mortality, growth regulation after 4 days
Plutella xylostella = Plutella xylostella (diamond back moth) larvae test on artificial diet; details: 200 ppm (concentration in well 18 ppm), L2 larvae, larval mortality, growth regulation after 6 days

| SMILES | control of Diabrotica balteata (Diabrotica balteata) | control of Spodoptera littoralis (Spodoptera littoralis) | control of Heliothis virescens (Heliothis virescens) | control of Plutella xylostella (Plutella xylostella) |
| --- | --- | --- | --- | --- |
| Cc1cc(C(F)(C(F)(F)F)C(F)(F)F)cc(C)c1NC(=O)c1cc(C#N)cc(NC(=O)c2ccc(C#N)cc2)c1 [B1, 3-cyano-5-(4′-cyano-benzoylamino)-N-[2,6-dimethyl-4-(1,2,2,2-tetrafluoro-1-trifluoromethyl-ethyl)-phenyl]-benzamide] | at least 80% | at least 80% | at least 80% | at least 80% |
| Cc1cc(C(F)(C(F)(F)F)C(F)(F)F)cc(C)c1NC(=O)c1cc(C#N)cc(NC(=O)c2ccccc2F)c1 [B2] | – | – | at least 80% | at least 80% |
| Cc1ccccc1C(=O)Nc1cc(C#N)cc(C(=O)Nc2c(C)cc(C(F)(C(F)(F)F)C(F)(F)F)cc2C)c1 [B3] | – | at least 80% | at least 80% | at least 80% |
| Cc1cc(C(F)(C(F)(F)F)C(F)(F)F)cc(C)c1NC(=O)c1cc(C#N)cc(NC(=O)c2ccccc2Cl)c1 [B4] | at least 80% | – | at least 80% | – |
| Cc1cc(C(F)(C(F)(F)F)C(F)(F)F)cc(C)c1NC(=O)c1cc(C#N)cc(NC(=O)c2cc(Cl)ccc2F)c1 [B6] | at least 80% | – | at least 80% | – |
| Cc1cc(C(F)(C(F)(F)F)C(F)(F)F)cc(C)c1NC(=O)c1cc(C#N)cc(NC(=O)c2ccc(C(F)(F)F)cc2)c1 [B9] | at least 80% | – | at least 80% | – |
| Cc1cc(C(F)(C(F)(F)F)C(F)(F)F)cc(C)c1NC(=O)c1cc(C#N)cc(NC(=O)c2ccccc2)c1 [B11] | at least 80% | – | at least 80% | at least 80% |
| Cc1cc(C(F)(C(F)(F)F)C(F)(F)F)cc(C)c1NC(=O)c1cc(C#N)cc(NC(=O)c2ccc(F)cc2)c1 [B12] | at least 80% | – | at least 80% | at least 80% |
| Cc1cc(C(F)(C(F)(F)F)C(F)(F)F)cc(C)c1NC(=O)c1ccc(C#N)c(N(C)C(=O)c2ccccc2Cl)c1 [C3] | – | at least 80% | at least 80% | at least 80% |
| CSc1cc(C(F)(F)F)ccc1C(=O)N(C)c1cc(C(=O)Nc2c(C)cc(C(F)(C(F)(F)F)C(F)(F)F)cc2C)ccc1C#N [C6] | at least 80% | at least 80% | – | at least 80% |
| Cc1cc(C(F)(C(F)(F)F)C(F)(F)F)cc(C)c1NC(=O)c1ccc(C#N)c(N(C)C(=O)c2ccco2)c1 [C10] | – | at least 80% | at least 80% | – |
| Cc1cc(C(F)(C(F)(F)F)C(F)(F)F)cc(C)c1NC(=O)c1ccc(C#N)c(N(C)C(=O)c2ccccc2OC(F)(F)F)c1 [C14] | – | at least 80% | at least 80% | – |
| COc1ccccc1C(=O)N(C)c1cc(C(=O)Nc2c(C)cc(C(F)(C(F)(F)F)C(F)(F)F)cc2C)ccc1C#N [C15] | – | at least 80% | at least 80% | – |
| Cc1cc(C(F)(C(F)(F)F)C(F)(F)F)cc(C)c1NC(=O)c1ccc(C#N)c(N(C)C(=O)c2ccccc2C(F)(F)F)c1 [C18] | – | at least 80% | at least 80% | at least 80% |
| Cc1cc(C(F)(C(F)(F)F)C(F)(F)F)cc(C)c1NC(=O)c1ccc(C#N)c(N(C)C(=O)c2snnc2C)c1 [C20] | – | – | at least 80% | at least 80% |
| Cc1cc(C(F)(C(F)(F)F)C(F)(F)F)cc(C)c1NC(=O)c1ccc(C#N)c(N(C)C(=O)c2cc(C(F)(F)F)ccc2F)c1 [C23] | at least 80% | – | at least 80% | – |
| CCc1cc(C(F)(C(F)(F)F)C(F)(F)F)cc(CC)c1NC(=O)c1ccc(C#N)c(N(C)C(=O)c2ccc(N(C)C)cc2)c1 [C28] | at least 80% | – | – | – |
| CCc1cc(C(F)(C(F)(F)F)C(F)(F)F)cc(CC)c1NC(=O)c1ccc(C#N)c(N(C)C(=O)c2ccc(OC(F)(F)F)cc2)c1 [C31] | at least 80% | – | at least 80% | at least 80% |
| CCc1cc(C(F)(C(F)(F)F)C(F)(F)F)cc(CC)c1NC(=O)c1ccc(C#N)c(N(C)C(=O)c2ccc(C(F)(F)F)cc2)c1 [C32] | at least 80% | – | at least 80% | at least 80% |
| CCc1cc(C(F)(C(F)(F)F)C(F)(F)F)cc(CC)c1NC(=O)c1ccc(C#N)c(N(C)C(=O)c2ccccc2OC(F)(F)F)c1 [C33] | at least 80% | – | – | at least 80% |
